According to PubChem BioAssay AID2685 (National Center for Advancing Translational Sciences (NCATS), 2010):
This is one part of the list. Shown are side measurements of this screen, not its main read-out; they come without a call. Compounds called inactive in the main read-out are mostly missing here. Words in brackets tell the shape of the fitted curve; partial curves, single points and poor fits give uncertain potencies.

Assay: qHTS Assay for Lipid Storage Modulators in Drosophila S3 Cells;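 as to cell number change: cells counted by Cell Tracker Red CMTPX staining in the red channel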
Details: BODIPY lipid droplet fluorescence, 18-24 h; for cell number change: measured here: cell count max response, cells fed with added oleic acid
In short: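 Drosophila S3 cells loaded with oleic acid (400 uM, as added) and compounds at several concentrations; lipid droplets imaged by 488-nm laser-scanning cytometry, 500–530 nm intensity and object ratio to cell channel. Percent activity normalized to 20 uM Triacsin C.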

[1] = measured here: lipid fluorescence (Fed channel) AC50, cells fed with added oleic acid
[2] = measured here: cell number channel AC50, cells fed with added oleic acid

Row | Structure (SMILES) | AC50 [1] | cell number change | AC50 [2]
1 | CC(C)(C)OC(=O)NCCCC[C@@H](C(=O)N1CCN(C(=O)OC(C)(C)C)CC1)n1cc(C(CO)NC(=O)OC(C)(C)C)nn1 (some centres undefined) | 1.46 µM [falling, partial curve] | – | –
2 | COc1ccc(S(=O)(=O)N2CCCCC2)cc1NC(=O)C1CCCC1 | – | -7.03% | –
3 | CCOc1ccccc1NC1=C(Cl)C(=O)N(c2ccccc2)C1=O | – | – | 2.59 µM [rising, single point]
4 | CCOC(=O)c1ccc(NC(=O)Nc2cccc(C)n2)cc1 | – | 8.02% | 0.259 µM [rising, full curve]
5 | CC(C)(C)c1nc2sc3c(c2c(=O)o1)CCCC3 | – | 6.29% | –
6 | CCOc1ccc(CCNC(=O)COC(=O)c2cc([N+](=O)[O-])ccc2N2CCOCC2)cc1OCC | 29.1 µM [falling, single point] | -54% | 29.1 µM [falling, single point]
7 | Cc1ccc(CCN2CC(C(=O)NCCc3ccccc3)CC2=O)cc1 (centres undefined) | 13 µM [rising, partial curve] | 39.4% | 13 µM [rising, partial curve, poor fit]
8 | COc1cc2c(cc1OC)C(C)N(C(=O)c1ccc(Cl)c(S(=O)(=O)N3CCCCC3)c1)CC2 (centres undefined) | – | -23% | –
9 | O=C(NCC(c1ccco1)N1CCOCC1)c1cccc([N+](=O)[O-])c1 (centres undefined) | 0.58 µM [rising, single point] | – | 6.51 µM [falling, single point]
10 | NC(=O)c1cc([N+](=O)[O-])ccc1NCc1cnccn1 | 0.00461 µM [falling, full curve, poor fit] | -3.61% | –
11 | COc1ccc(O)c(/C=N/NC(=O)c2ccc(OCc3cccc(Br)c3)cc2)c1 | 13 µM [falling, partial curve] | -78% | 20.6 µM [falling, partial curve]
12 | CC1(c2nnc(Cc3ccccc3)o2)CC(c2ccccc2F)=NO1 (centres undefined) | 2.91 µM [falling, full curve] | -48.1% | 23.1 µM [falling, partial curve, poor fit]
13 | COc1ccccc1C(=O)N(Cc1nc(-c2ccc(Cl)cc2)no1)C(C)C | 29.1 µM [rising, single point] | 55.3% | 8.2 µM [rising, partial curve]
14 | Cc1ccc(N(CC(=O)NCc2ccccc2)C(=O)CCC(=O)Nc2ccccn2)cc1 | 6.51 µM [falling, single point] | 27.3% | –
15 | N#Cc1ccsc1NC(=O)c1ccc(Cl)c([N+](=O)[O-])c1 | 13 µM [falling, single point] | -1% | –
16 | Oc1ccccc1Nc1nc(NCc2ccco2)c2ccccc2n1 | 3.26 µM [falling, full curve, poor fit] | -18% | –
17 | CN(C)C(CNc1nnnn1-c1ccccc1)c1ccco1 (centres undefined) | 6.51 µM [rising, single point] | – | 6.51 µM [rising, single point]
18 | CCOc1ccc(S(=O)(=O)N2CCC(C(=O)OC(C)C(=O)NC3CCCCC3C)CC2)cc1 (centres undefined) | – | -17.3% | –
19 | COc1ccc(C(C(=O)NC2CCCCC2)N(C(=O)c2sc(C)nc2C)c2ccc(OC)cc2)cc1 (centres undefined) | 0.731 µM [rising, full curve] | 4.46% | –

Single records, as listed above. Values in the order: AC50 [1] | cell number change | AC50 [2]
CCOc1ccc(CCNC(=O)COC(=O)c2cc([N+](=O)[O-])ccc2N2CCOCC2)cc1OCC is entered as 29.1 µM [falling, single point] | -54% | 29.1 µM [falling, single point]
O=C(NCC(c1ccco1)N1CCOCC1)c1cccc([N+](=O)[O-])c1 (centres undefined) is entered as 0.58 µM [rising, single point] | – | 6.51 µM [falling, single point]

Further records follow:

Row | Structure (SMILES) | AC50 [1] | cell number change | AC50 [2]
20 | O=C(CSc1ccccc1F)NC1CCS(=O)(=O)C1 (centres undefined) | 29.1 µM [falling, single point] | -30.5% | –
21 | CN(C)/C=C(\C=O)c1ncc(C(F)(F)F)cc1Cl | 0.517 µM [falling, full curve] | -44.7% | –
22 | O=C(NCCCCCCNC(=O)c1ccccc1O)c1ccccc1O | 18.4 µM [falling, single point] | -42.3% | 16.4 µM [falling, single point]
23 | O=C(/C=C/c1ccco1)NC(=S)Nc1cccc([N+](=O)[O-])c1 | 32.6 µM [falling, single point] | -13.8% | –
24 | COc1cccc(C(=O)NC(=O)Nc2cc(C)[nH]n2)c1 | 7.31 µM [rising, partial curve] | 19.5% | –
25 | O=C(c1ccccc1)c1ccc2nc(-c3ccco3)c(-c3ccco3)nc2c1 | 29.1 µM [falling, single point] | -28.2% | –
26 | O=C1CCCc2ccccc2N1Cc1cccc(Cl)c1 | 9.2 µM [falling, partial curve, poor fit] | -19.7% | 2.06 µM [falling, partial curve]
27 | COc1ccc(-c2cc(C(F)(F)F)n3ncc(C(=O)NCc4ccco4)c3n2)cc1 | 0.92 µM [rising, full curve, poor fit] | -2.91% | –
28 | O=C(NCCc1ccccc1)c1ccc2c(c1)N(Cc1ccccc1)CCS2 | – | -9.91% | –
29 | O=C(Nc1c(F)cccc1F)c1ccc2c(c1)CCN2S(=O)(=O)c1ccccc1 | – | 15.6% | –
30 | Cc1nn(CC(=O)N(C)C)c(=O)c2ccccc12 | 1.03 µM [falling, partial curve] | -9.18% | –
31 | O=C(COC(=O)c1cncc(Br)c1)NC1CC1 | 20.6 µM [falling, partial curve] | -126% | 29.1 µM [falling, partial curve, poor fit]
32 | O=C(Cn1c(=O)oc2ccccc21)NC(=O)NCc1ccccc1 | 29.1 µM [rising, single point] | – | –
33 | COc1ccc(C(C(=O)NC(C)(C)C)N(CCO)C(=O)CCC(=O)Nc2cc(C)on2)cc1 (centres undefined) | 0.326 µM [falling, full curve, poor fit] | -10.3% | –
34 | Fc1ccc(NCc2nnc(SCc3nnc(-c4ccccc4)o3)n2Cc2ccccc2)cc1 | 18.4 µM [falling, single point] | -27.3% | –
35 | O=C(c1cccs1)N1CCCC(c2nc3c(nnn3Cc3ccccc3Cl)c(=O)[nH]2)C1 (centres undefined) | 29.1 µM [falling, single point] | 17.6% | 0.517 µM [rising, partial curve, poor fit]
36 | O=C(CN(Cc1ccccc1)S(=O)(=O)c1ccc(Br)cc1)NCC1CCCO1 (centres undefined) | – | 34.9% | –
37 | CN(C)c1ccc(NC(=O)COC(=O)CNC(=O)c2cccs2)cc1 | 0.00461 µM [falling, full curve, poor fit] | 18.9% | 0.92 µM [falling, full curve, poor fit]
